# Reference: the supplement of paper PMC12067093, “Discovery and optimisation of a covalent ligand for TRIM25 and its application to targeted protein ubiquitination” (Chemical Science, 2025)
# Some of the results follow.
# Compound: CC1Cc2ccccc2N1C(=O)C1CCCN(C1)C(=O)CCl (mixture of isomers) [TRIM25 ligand 11 (diastereomer mixture)]
# Test: probe-labelled cysteine peptide fold change vs DMSO (competition) (log2 fold change); higher = less target engagement (more negative = stronger competition)
# Conditions: THP-1, incubation time: 4 h
# 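Also: competitive chemoproteomic profiling in live THP-1 cells with an iodoacetamide desthiobiotin (IA-DTB) probe, comparing probe-labelled peptide intensities in compound-treated cells against DMSO-treated controls.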
Target,probe-labelled cysteine peptide fold change (10 µM),probe-labelled cysteine peptide fold change (50 µM)
HNRNPU_Q00839_607_KAVVVCPK (UniProt Q00839),-0.0915,-0.179
HMGCR_P04035_708_SVVCEAVIPAK (UniProt P04035),-0.0108,0.383
HSPA4L_O95757_140_KPVADCVISIPSFFTDAERR (UniProt O95757),-0.0435,-0.0286
HSPA4L_O95757_245_NFDEALVDYFCDEFK (UniProt O95757),-0.0832,0.0767
HSPD1_P10809_442_AAVEEGIVLGGGCALLR (UniProt P10809),-0.0139,-0.0338
HSD17B10_Q99714_58_LGNNCVFAPADVTSEK (UniProt Q99714),-0.00178,-0.227
HNRNPUL2_Q1KMD3_57_LQEALDAEMLEDEAGGGGAGPGGACK (UniProt Q1KMD3),-0.11,-0.35
HTATSF1_O43719_328_HPDGVASVSFRDPEEADYCIQTLDGR (UniProt O43719),0.166,0.0493
HSPA4L_O95757_167_SVMAAAQVAGLNCLR (UniProt O95757),0.00201,0.0232
HPDL_Q96IR7_9_LCHIAFHVPAGQPLAR (UniProt Q96IR7),-0.126,0.0898
HMGCL_P35914_307_LLEAGNFICQALNR (UniProt P35914),0.011,0.16
HNRNPUL2_Q1KMD3_408_NCVVELNFGQKEEPFFPPPEEFVFIHAVPVEER (UniProt Q1KMD3),-0.173,-0.0613
HSPA5_P11021_41_EDVGTVVGIDLGTTYSCVGVFK (UniProt P11021),0.162,0.307
HNRNPA2B1_P22626_50_LTDCVVMR (UniProt P22626),-0.0523,-0.114
HSD17B12_Q53GQ0_166_KMININILSVCK (UniProt Q53GQ0),-0.306,-0.272
HOMEZ_Q8IX15_110_CGISWSSEEIEETR (UniProt Q8IX15),0.0831,0.0249
HNRNPM_P52272_676_FNECGHVLYADIK (UniProt P52272),0.0108,0.038
HPRT1_P00492_23_SPGVVISDDEPGYDLDLFCIPNHYAEDLER (UniProt P00492),0.0744,-0.0996
HSD17B7_P56937_158_ELEPLLCHSDNPSQLIWTSSR (UniProt P56937),0.127,0.183
HNRNPA2B1_P22626_50_LTDCVVMRDPASK (UniProt P22626),0.0102,0.0215
HNRNPL_P14866_521_IQHPSNVLHFFNAPLEVTEENFFEICDELGVK (UniProt P14866),0.0969,-0.196

Target,probe-labelled cysteine peptide fold change (10 µM),probe-labelled cysteine peptide fold change (50 µM)
HNRNPA3_P51991_64_WGTLTDCVVMRDPQTKR (UniProt P51991),-0.717,-0.524
HNRNPLL_Q8WVV9_505_TLSGLLEWECKTDAVEALTALNHYQIR (UniProt Q8WVV9),-0.494,-0.227
HTATSF1_O43719_295_NMFHPMDFEDDPLVLNEIREDLRVECSK (UniProt O43719),-0.277,-0.132
HSD17B11_Q8NBQ5_94_VHTFVVDCSNREDIYSSAK (UniProt Q8NBQ5),0.0629,-0.0602
HNRNPA1L2_Q32P51_175_GHNCEVR (UniProt Q32P51),0.171,0.181
HNRNPM_P52272_676_DKFNECGHVLYADIK (UniProt P52272),-0.633,-0.474
HSPA4_P34932_245_FDEVLVNHFCEEFGK (UniProt P34932),0.196,0.153
HSD17B4_P51659_189_SNIHCNTIAPNAGSR (UniProt P51659),0.0271,-0.0918
HNRNPU_Q00839_607_KAVVVCPKDEDYK (UniProt Q00839),-0.459,-0.291
HSPB11_Q9Y547_52_HPPENIIDGNPETFWTTTGMFPQEFIICFHK (UniProt Q9Y547),0.109,0.0788
HNRNPLL_Q8WVV9_84_GLCESVVEADLVEALEK (UniProt Q8WVV9),0.0479,-0.284
HSPH1_Q92598_167_SVLDAAQIVGLNCLR (UniProt Q92598),-0.0128,0.0497
HNRNPU_Q00839_648_GNFTLPEVAECFDEITYVELQK (UniProt Q00839),-0.000604,-0.189
HSP90B1_P14625_645_LTESPCALVASQYGWSGNMER (UniProt P14625),-0.101,-0.109
HNMT_P50135_31_FLNHSTEHQCMQEFMDKK (UniProt P50135),-0.0809,-0.28
HNRNPA0_Q13151_49_CFGFVTYSNVEEADAAMAASPHAVDGNTVELKR (UniProt Q13151),-0.116,-0.183
HSPA4L_O95757_540_CHAEHTPEEEIDHTGAK (UniProt O95757),-0.102,-0.185
HTATSF1_O43719_462_EAEEGCPEK (UniProt O43719),-0.0787,-0.285
HMGXB3_Q12766_800_TCGLKPSTLK (UniProt Q12766),-0.128,-0.181
HSPA4_P34932_146_KPVVDCVVSVPCFYTDAERR (UniProt P34932),0.116,0.0285
HSPA4_P34932_140+146_KPVVDCVVSVPCFYTDAER (UniProt P34932),0.113,0.00257

Target,probe-labelled cysteine peptide fold change (10 µM),probe-labelled cysteine peptide fold change (50 µM)
HPDL_Q96IR7_168_VDHLTLACTPGSSPTLLR (UniProt Q96IR7),0.0884,-0.108
HNRNPUL1_Q9BUJ2_532_KAIVICPTDEDLK (UniProt Q9BUJ2),-0.551,-0.521
HNRNPR_O43390_214_GYAFITFCGK (UniProt O43390),-0.176,-0.0712
HSPA8_P11142_603_VCNPIITK (UniProt P11142),-0.0745,-0.00601
HSPBP1_Q9NZL4_201_LLDRDACDTVR (UniProt Q9NZL4),-0.108,-0.14
HSPH1_Q92598_658_FICEQDHQNFLR (UniProt Q92598),0.0618,0.177
HNRNPU_Q00839_391_TCNCETEDYGEK (UniProt Q00839),0.439,0.074
HPS4_Q9NQG7_183_ILQTCQR (UniProt Q9NQG7),-0.0554,0.296
HNRNPAB_Q99729_224_KFHTVSGSKCEIK (UniProt Q99729),-0.654,-0.0882
HNRNPM_P52272_114_GCAVVEFK (UniProt P52272),-0.0271,0.0453
HNRNPA3_P51991_64_WGTLTDCVVMRDPQTK (UniProt P51991),-0.0934,-0.159
HSPD1_P10809_237_CEFQDAYVLLSEKK (UniProt P10809),-0.374,-0.338
HPS1_Q92902_165_EQEQCFAVEALER (UniProt Q92902),0.259,0.344
HP_P00738_340_SPVGVQPILNEHTFCAGMSK (UniProt P00738),-0.0896,-0.24
HSPG2_P98160_3043_CLIHDGAAPISLEWK (UniProt P98160),0.0387,0.152
HNRNPU_Q00839_450_PLFPHVLCHNCAVEFNFGQK (UniProt Q00839),0.107,0.085
HSPA4_P34932_34_CTPACISFGPK (UniProt P34932),0.0618,-0.0344
HSD17B11_Q8NBQ5_217_TTCLCPNFVNTGFIK (UniProt Q8NBQ5),0.106,0.0234
HSP90AA1_P07900_529_KHGLEVIYMIEPIDEYCVQQLK (UniProt P07900),-0.0494,-0.149
HPS3_Q969F9_254_TEEGISNEISQLESDDFVICQK (UniProt Q969F9),-0.0867,-0.36
HNRNPA3_P51991_85_GFGFVTYSCVEEVDAAMCARPHK (UniProt P51991),-0.229,-0.173

Target,probe-labelled cysteine peptide fold change (10 µM),probe-labelled cysteine peptide fold change (50 µM)
HTATSF1_O43719_328_LLLFDRHPDGVASVSFRDPEEADYCIQTLDGR (UniProt O43719),0.141,0.0805
HSPA4_P34932_213_NVVFVDMGHSAYQVSVCAFNR (UniProt P34932),0.1,0.0909
HSPA4_P34932_167_SVMDATQIAGLNCLR (UniProt P34932),0.00217,0.0494
HMGCS1_Q01581_406_ITASLCDLK (UniProt Q01581),0.00806,-0.0782
HNRNPA1_P09651_175_YHTVNGHNCEVRK (UniProt P09651),-0.155,-0.11
HNRNPF_P52597_34_GLPWSCSVEDVQNFLSDCTIHDGAAGVHFIYTR (UniProt P52597),0.148,0.00236
HNRNPDL_O14979_277_RGFCFITYTDEEPVKK (UniProt O14979),-0.177,-0.0946
HMGCS1_Q01581_224_LSIQCYLSALDR (UniProt Q01581),0.0241,0.157
HSD17B10_Q99714_91_VDVAVNCAGIAVASK (UniProt Q99714),0.0329,-0.0714
HSDL2_Q6YN16_136_ACIPYLK (UniProt Q6YN16),-0.0408,-0.0632
HNRNPDL_O14979_277_RGFCFITYTDEEPVK (UniProt O14979),-0.0535,-0.136
HSPD1_P10809_237_CEFQDAYVLLSEK (UniProt P10809),0.0581,-0.103
HNRNPA3_P51991_85+94_GFGFVTYSCVEEVDAAMCARPHK (UniProt P51991),-0.263,-0.209
HNRNPR_O43390_99_SAFLCGVMK (UniProt O43390),0.01,-0.0266
HSP90AB1_P08238_521_GFEVVYMTEPIDEYCVQQLK (UniProt P08238),0.0146,0.00854
HSPA4_P34932_417_WNSPAEEGSSDCEVFSK (UniProt P34932),0.0812,-0.116
HNRNPA1_P09651_43_SHFEQWGTLTDCVVMRDPNTKR (UniProt P09651),-0.241,-0.324
HMGCS1_Q01581_86_NNLSYDCIGR (UniProt Q01581),-0.153,-0.103
HTATSF1_O43719_186_GDGLCCYLK (UniProt O43719),0.204,-0.0126
